We go through 102 compounds from the supplement of paper PMC11150407.

SMILES strings stand for the structures. The whole screen tested about 3,000 compounds, of which about 45 (2%) showed an effect of 50% or more. The list shows a part of the results.

This test relates to MOLM1 and UCSD/AML1 (averaged). As to the kind of experiment: cell viability relative to DMSO control (POC); higher = less growth inhibition. The settings on record: 1 µM; 72 h. As to the method: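 Primary viability screen in the 3q26 EVI1-high AML cell lines MOLM1 and UCSD/AML1, compounds at 1 uM for 72 h. ATP CellTiter-Glo read-out given as percent viable over DMSO control (POC), averaged over duplicates. This mapping covers the TimTec NDL-3000 natural derivative library, whose compounds are identified by TimTec catalogue codes (ST...).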
A word on the cell viability: it is a read-out of living cells in per cent, often relative to untreated cells. In the case of `COc1cc(OC)cc(C(=O)Nc2ccc3nc(C)c(C)nc3c2)c1`, the cell viability is 95.5%.

With `CCOC(=O)CNC(=O)c1cccc(OC)c1`, the cell viability was 102%.

Take `COc1ccc(CCNC(=O)CCCO)cc1OC`: the cell viability was found to be 100%.

Turning to `COc1ccc(-c2cc(=O)c3cc(O)ccc3o2)cc1`, the cell viability was 71.1%.

`O=C(Oc1ccc2c(=O)c(Oc3ccccc3Br)coc2c1)c1ccco1`: the cell viability was 96.4%.

Take `COc1cc(/C=C2/NC(=O)N(CC(=O)Nc3ccc(C)cc3)C2=O)cc2c1OCO2`: the cell viability turned out to be 98.3%.

Regarding `COC(=O)CNC(=O)c1cccc(OC)c1`, the cell viability worked out at 103%.

With `Cc1c(Cl)ccc2c1NC(C(=O)O)C1CC=CC21` (configuration not stated), the cell viability is 107%.

Turning to `O=C(CSc1nc2ccccc2c(=O)[nH]1)N1CCN(c2ccc(F)cc2)CC1`, the cell viability is 98.1%.

As for `COc1cccc(Nc2ncnc3nc[nH]c23)c1`, the cell viability was 102%.

`COc1cccc(N2C(=O)C3Cc4c([nH]c5ccccc45)C(c4ccccc4)N3C2=S)c1` (configuration not stated): the cell viability is 96.5%.

For the compound `Cc1ccc(-n2c(SCC(=O)N3CCCc4ccccc43)nc3c(=O)[nH]cnc32)cc1`, the cell viability was 105%.

In the case of `O=c1cc(-c2ccc(Cl)cc2)oc2c(Br)cc(Br)cc12`, the cell viability stood at 108%.

For `CC(Nc1nc(N2CCNCC2)nc2ccccc12)c1ccccc1` (configuration not stated), the cell viability came out at 89.5%.

As to `COc1cc(C(=O)NC2CCCCC2NC(=O)c2cc(OC)c(OC)c(OC)c2)cc(OC)c1OC` (configuration not stated), the cell viability is 111%.

Take `COCCOC(=O)c1c(C)n(CCNc2ccc([N+](=O)[O-])cc2Cl)c2c1cc(O)c1ccccc12`: the cell viability was determined as 98.8%.

Regarding `Cc1ccc(N2COc3ccc4c(C)cc(=O)oc4c3C2)cc1`, the cell viability came to 91.1%.

Regarding `Cc1ccc(C(=O)NCCc2c(C)[nH]c3c(C)cccc23)cc1[N+](=O)[O-]`, the cell viability is 89.3%.

Take `COc1cc2c(c(NC(=O)/C=C/c3ccccc3Cl)c1OC)C(=O)OC2`: the cell viability was determined as 99.9%.

For `COc1ccc(NC(=O)CSc2nc3c(=O)[nH]cnc3n2-c2ccc(C)cc2)cc1OC`, the cell viability was determined as 92.8%.

Turning to `COc1ccc(/C=N/NC(=O)c2cc(O)c(O)c(O)c2)cc1Cn1cnc([N+](=O)[O-])n1`, the cell viability stood at 95.5%.

On to `CCN(CC)C(=O)c1cc(=O)n(CC(=O)Nc2ccc(F)cc2F)c2ccccc12`, for which the cell viability was determined as 107%.

Take `O=c1[nH]c(=O)n(C2CC(O)C(CO)O2)cc1C(F)(F)F` (configuration not stated): the cell viability stood at 29.6%.

As to `COC(=O)CN1Cc2[nH]c3ccccc3c2CC1C(=O)OC` (configuration not stated), the cell viability worked out at 105%.

As for `COc1ccc2[nH]c(=O)c(Cc3ccccc3)c(O)c2c1`, the cell viability was 102%.

Take `Cc1[nH]c2ccccc2c1CCNC(=O)/C(=C/c1ccc(OC(C)C)cc1)NC(=O)c1ccccc1`: the cell viability was 104%.

In the case of `Cc1cc2c(c(O)c1-c1c(C)cc3c(c1O)/C(=C/Nc1ccc(Cc4ccc(N)cc4)cc1)C(=O)C(O)=C3C(C)C)/C(=C/Nc1ccc(Cc3ccc(N)cc3)cc1)C(=O)C(O)=C2C(C)C`, the cell viability was 100%.

As for `Cc1ccc2nc(CC(=O)O)[nH]c2c1`, the cell viability turned out to be 98.4%.

On to `Cc1[nH]c2c(Cl)c(Cl)ccc2c1CCNC(=O)Cn1nc(-c2ccc(Cl)cc2)c2ccccc2c1=O`, for which the cell viability is 105%.

In the case of `COC(=O)CNC(=O)c1ccc(OC)c(OC)c1`, the cell viability came to 103%.

`CC(C)(C)c1ccc(OCCSc2nc3ncnc(N)c3[nH]2)cc1`: the cell viability was determined as 97.9%.

Consider `CCCOc1ccc(/C=C2\Oc3ccc(C(=O)OC)cc3C2=O)cc1OCC`, for which the cell viability was found to be 106%.

As for `COc1ccc2c(c1)c(CC(=O)Nc1c(C)n(C)n(-c3ccccc3)c1=O)c(C)n2C(=O)c1ccc(Cl)cc1`, the cell viability was 97.1%.

As to `COc1cc(/C=C(/C#N)c2nc3ccccc3s2)cc(OC)c1O`, the cell viability turned out to be 92.5%.

On to `CCOC(=O)CC[C@@H](C)[C@H]1CC[C@H]2[C@@H]3[C@H](O)C[C@@H]4C[C@H](O)CC[C@]4(C)[C@H]3C[C@H](O)[C@]12C`, for which the cell viability was found to be 93.1%.

With `Cc1[nH]c2ccccc2c1CCNC(=O)c1cc(F)c(F)cc1Cl`, the cell viability amounted to 105%.

As to `O=c1[nH]c(=O)n(CCOc2ccc(Cl)cc2)cc1Br`, the cell viability came out at 93.2%.

As to `Cc1ccc2c(=O)c(O)c(-c3ccc(OCc4ccccc4)cc3)oc2c1`, the cell viability stood at 112%.

As for `Cc1ccc(C)c(NC(=O)Cn2c(=O)cc(C(=O)NCc3ccccc3)c3ccccc32)c1`, the cell viability was 93.9%.

In the case of `N#CC1=C(N)Oc2c(oc(CO)cc2=O)C1c1ccc2ccccc2c1` (configuration not stated), the cell viability came to 99.5%.

`Cc1[nH]c2ccccc2c1CCNC(=O)/C(=C/c1ccco1)NC(=O)c1ccc(C(C)(C)C)cc1`: the cell viability is 89.9%.

As to `Cc1[nH]c2ccccc2c1CCNC(=O)COc1ccc(F)cc1F`, the cell viability stood at 102%.

On to `Cc1cccc(C(=O)/C=C2/c3ccc4ccccc4c3CC(C)(C)N2C)c1`, for which the cell viability was 103%.

Regarding `O=C(O)CC[C@H](NC(=O)c1ccccc1)C(=O)O`, the cell viability came out at 114%.

For the compound `Nc1c(C(=O)N2CCc3ccccc3C2)sc2nc(-c3cccnc3)cc(C(F)(F)F)c12`, the cell viability came to 108%.

Turning to `COc1cc(-c2nc3c(n2O)C(=O)CC(C)(C)C3)cc(OC)c1OC`, the cell viability is 94.8%.

On to `COC(=O)C1=C(N)Oc2c(oc(CO)cc2=O)C1c1cccnc1` (configuration not stated), for which the cell viability was found to be 111%.

In the case of `Cc1ccc(-n2c(SCC(=O)Nc3ccc4c(c3)OCO4)nc3c(=O)[nH]cnc32)cc1`, the cell viability turned out to be 92.4%.

As for `O=C(Cn1c(=O)cc(C(=O)N2CCOCC2)c2ccccc21)Nc1cccc(Br)c1`, the cell viability is 92.7%.

Take `O=C(O)CNC(=O)c1ccc(F)cc1`: the cell viability is 103%.

Take `COc1c2c(c(COc3ccc4c(c3)OCO4)c(OC)c1OC)C(=O)OC2`: the cell viability amounted to 103%.

With `O=C(O)/C=C/c1ccc(F)c(Br)c1`, the cell viability amounted to 105%.

Turning to `COc1ccc(C(=S)N2CCCCC2)cc1OC(=O)c1cc(OC)c(OC)c(OC)c1`, the cell viability was 107%.

With `CCOC(=O)c1ccc2nc3c(=O)[nH]c(=O)nc-3n(CCc3ccc(OC)c(OC)c3)c2c1`, the cell viability turned out to be 99.7%.

As to `COc1cc(C)cc2oc(=O)c(CC(=O)NCc3ccc(F)cc3)c(C)c12`, the cell viability was 103%.

As for `COc1cc(OC)cc(C(=O)N2CCCc3cccc(OC)c32)c1`, the cell viability was 95.2%.

Regarding `CC(C)CCOC(=O)COc1ccc2c(=O)c(Oc3ccc(C(C)(C)C)cc3)coc2c1`, the cell viability came out at 85.3%.

In the case of `COC(=O)c1ccc2c(c1)C(=O)/C(=C\c1ccc(OC)cc1)O2`, the cell viability is 101%.

For `COc1ccc2oc(=O)cc(CN3CCN(C(=O)c4ccc(Br)cc4)CC3)c2c1`, the cell viability was determined as 93.4%.

For the compound `CC(=O)c1c(C)nc2ccccc2c1C(=O)O`, the cell viability worked out at 91.9%.

As for `Cc1ncc(CO)c(C)c1O`, the cell viability stood at 104%.

For `O=C(CSc1nc2ccccc2c(=O)[nH]1)Nc1ccc2c(c1)OCO2`, the cell viability came out at 102%.

For the compound `COc1cc(C2C3=C(CC(C)(C)CC3=O)Nc3[nH]c(=O)[nH]c(=O)c32)cc(OC)c1OC` (configuration not stated), the cell viability amounted to 101%.

For `Nc1nc(N)c2c(Cl)cccc2n1`, the cell viability was 99.3%.

Take `CCc1cccc(C)c1Nc1ncnc2ccc(Br)cc12`: the cell viability turned out to be 88.2%.

Take `COc1ccc(NC(=O)/C=C/c2ccc(OC)c(OC)c2)cc1`: the cell viability worked out at 95.3%.

As for `Cn1c(SCC(=O)Nc2ccc(F)c(Cl)c2)nc2c(=O)[nH]cnc21`, the cell viability is 115%.

As for `CCOc1ccccc1C1C2CCCCC2(O)CCN1C(=O)c1cc(OCC)c(OCC)c(OCC)c1` (configuration not stated), the cell viability stood at 87%.

In the case of `COc1ccc(C(=O)NCCc2c(C)[nH]c3ccc(OCc4ccccc4)cc23)cc1OC`, the cell viability was 108%.

For `COc1ccc(C(=O)Cn2nc(-c3ccccc3)oc2=O)cc1OC`, the cell viability is 104%.

For the compound `CCc1ccc(NC(=O)CSc2nc3c(=O)[nH]cnc3n2-c2ccc(C)cc2)cc1`, the cell viability came out at 101%.

On to `COC(=O)Cn1cnc2c1c(=O)[nH]c(=O)n2C`, for which the cell viability was found to be 106%.

As to `O=C(Cn1c(=O)cc(C(=O)N2CCCCC2)c2ccccc21)Nc1cccc(Cl)c1`, the cell viability was found to be 92.1%.

In the case of `Nc1ccc(-c2c3ccc(=O)cc-3oc3cc(O)ccc23)c(C(=O)O)c1`, the cell viability was determined as 99.4%.

With `CN(C)c1ccc(/C=N/NC(=O)Cc2n[nH]c(=O)[nH]c2=O)cc1`, the cell viability is 105%.

Take `CC(Cl)COC(=O)/C=C/c1ccc([N+](=O)[O-])cc1` (configuration not stated): the cell viability came to 108%.

As for `O=C(Cn1c(=O)cc(C(=O)N2CCOCC2)c2ccccc21)Nc1ccc(F)c(Cl)c1`, the cell viability came to 89.6%.

Take `COc1cc(C=O)ccc1OCC(N)=O`: the cell viability was found to be 100%.

`Cn1ncc([N+](=O)[O-])c1C(=O)NC(CO)C(O)c1ccc([N+](=O)[O-])cc1` (configuration not stated): the cell viability was 96.6%.

On to `O=C1NCCc2c1[nH]c1ccccc21`, for which the cell viability was determined as 111%.

Regarding `COCCOC(=O)c1c(C)n(-c2cccc(C)c2)c2c1cc(O)c1ccccc12`, the cell viability is 108%.

Regarding `COc1ccc(C(=O)NCC(=O)O)cc1`, the cell viability came to 105%.

For `CC1CCN(S(=O)(=O)c2ccc(NC(=O)CN3CCc4ccccc4C3)cc2)CC1`, the cell viability was 96.8%.

Turning to `O=C(CN1C(=O)S/C(=C\c2cc3c(cc2[N+](=O)[O-])OCO3)C1=O)Nc1ccccc1F`, the cell viability came out at 102%.

Take `CCC(CC)c1nc(Nc2cccc(C(C)=O)c2)c2ccccc2n1`: the cell viability came out at 92.7%.

On to `COc1c(C)cnc(CSc2nc3ccccc3c(=O)[nH]2)c1C`, for which the cell viability was 100%.

For the compound `COc1ccc(C(=O)Nc2cc(C)ccc2C)cc1OC`, the cell viability was 96.7%.

Turning to `COc1ccc(S(=O)(=O)NCCc2c(C)[nH]c3ccc(C)cc23)c2ccccc12`, the cell viability was determined as 70.1%.

Turning to `CCCOc1cccc(C2C3=C(CC(C)(C)CC3=O)Nc3ccccc3N2C(C)=O)c1` (configuration not stated), the cell viability was determined as 100%.

In the case of `Cc1cc2c(C(C)C)c(O)c(O)c(C=NCC34CC5CC(CC(C5)C3)C4)c2c(O)c1-c1c(C)cc2c(C(C)C)c(O)c(O)c(C=NCC34CC5CC(CC(C5)C3)C4)c2c1O`, the cell viability stood at 104%.

Turning to `COc1ccc(C2CC(=O)C3=C(C2)Nc2ccccc2NC3c2ccncc2)cc1` (configuration not stated), the cell viability is 104%.

Take `Cc1cc(/C=N/NC(=O)c2ccc(CN3CCc4ccccc4C3)cc2)c(C)n1-c1ccccc1F`: the cell viability was determined as 87.7%.

On to `O=C(CCNc1n[nH]c(=O)[nH]c1=O)N/N=C/c1c[nH]c2ccccc12`, for which the cell viability was found to be 100%.

Regarding `CCOc1ccc2oc(=O)cc(CN3CCN(Cc4ccc(OC)cc4)CC3)c2c1`, the cell viability amounted to 101%.

As for `CCOc1cc(C2Nc3ccccc3NC3=C2C(=O)CC(c2ccc(OC)c(OC)c2)C3)cc(Br)c1OC` (configuration not stated), the cell viability was 109%.

`NC(=O)CC(NSc1ccccc1[N+](=O)[O-])C(=O)O` (configuration not stated): the cell viability was determined as 99.9%.

With `COc1cc2c(cc1OC)C(c1cccc(I)c1)NCC2` (configuration not stated), the cell viability was 78.3%.

In the case of `COc1cc(C(=O)Nc2ccc3c(c2)CCCN3C(=O)C(C)(C)C)cc(OC)c1OC`, the cell viability amounted to 95.1%.

Turning to `O=C(OCC1CCCN2CCCCC12)c1cccc(Br)c1` (configuration not stated), the cell viability was 102%.

As for `COc1ncnc2nc[nH]c12`, the cell viability amounted to 100%.

Turning to `Cc1ccc2c(CN3CCN(CC#N)CC3)cc(=O)oc2c1`, the cell viability came out at 99.4%.

Consider `Cc1c(CCC(=O)NCc2ccccc2)c(=O)oc2cc(O)ccc12`, for which the cell viability was 102%.
